Measured values as given in PubChem BioAssay AID1347076 (National Center for Advancing Translational Sciences (NCATS), 2019).
The campaign covered roughly 400,000 compounds. About 13,000 (3.2%) were called active. The inconclusive results got no clear call from the source; some entries with a clear call stand among them for comparison. Calls follow the shape of the dose curve; as a rule, active = well fitted cell-killing curve with a large enough effect; inconclusive = small, poorly fitted or top-dose-only effect, or effect the other way; inactive = flat fitted curve, though single readings scatter. Potencies of inconclusive entries are doubtful fits and often do not repeat.

experiment: qHTS assay for MDR1-selective chemotherapeutics: Primary screen using the drug-selected MDR subline cells KB-V1; conditions: KB-V1 MDR cells viability, CellTiter-Glo, 72 h; activity change, negative = cytotoxicity: at 46.1 µM (top of the series); also: nearly all actives have a fitted effect of over 60% in size
Method in brief: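 Following 72 h at 37 degrees C with compound, KB-V1 cell viability was read by CellTiter-Glo luminescence, medium being phenol-red-free DMEM plus 10% FBS; concentration-response parameters came from normalized, curve-fitted qHTS data.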
% is scaled to controls: 0 for no effect and ±100 for the full control effect; potency is read from the fitted curve at half-maximal effect.

| SMILES | Potency | activity change, negative = cytotoxicity |
| --- | --- | --- |
| O=C(Nc1ccc(OC(F)(F)F)cc1)C1CCCCN1S(=O)(=O)c1ccccc1 (stereo not given) | inconclusive: 25.9 µM [cytotoxic, partial curve, poor fit] | – |
| CCS(=O)(=O)N1Cc2ccccc2CC1C(=O)Nc1nc2ccccc2s1 (stereo not given) | active: 16.4 µM | – |
| CCNc1ccc(C(=O)OCC(=O)N2CCCC2)cc1[N+](=O)[O-] | inconclusive: 32.6 µM [cytotoxic, partial curve, poor fit] | – |
| CCOc1ccc(-n2c(SCc3cc(=O)oc4cc(C)ccc34)nnc2-c2cccnc2)cc1 | inconclusive: 5.8 µM [cytotoxic, partial curve] | – |
| CCOC(=O)Cc1c(C)nc2c(C#N)c[nH]n2c1=O | inconclusive: 0.92 µM [rising, full curve, poor fit] | – |
| C=CCN1C(=O)CN=C1NCc1ccccc1 | inconclusive: 16.4 µM [rising, single point] | – |
| C#CCN1C(=O)C(O)(CC(=O)c2cc(OC)ccc2OC)c2ccccc21 (stereo not given) | inconclusive: 29.1 µM [cytotoxic, single point] | – |
| O=C(c1cnc(N2CCCCC2)c2ccccc12)N1CCN(c2cccc(Cl)c2)CC1 | inconclusive: 18.4 µM [cytotoxic, single point] | – |
| Cc1ccc(NC(=O)c2cc3c([nH]c2=O)CC(c2ccccc2)CC3=O)cc1 (stereo not given) | – | inactive: 16.8% |
| Nc1ccn([C@@H]2O[C@H](CNC(=O)[C@@H](N)CSCc3ccccc3)[C@@H](O)[C@H]2O)c(=O)n1 | inconclusive: 0.366 µM [rising, full curve] | – |
| COCCCNC(=O)c1nn(-c2ccc(C)cc2)c(=O)n(C)c1=O | inconclusive: 2.06 µM [cytotoxic, full curve] | – |
| CN(CCc1ccccc1)C(CCc1ccccc1)C(=O)Nc1ccc2c(c1)OCCO2 (stereo not given) | inconclusive: 23.1 µM [cytotoxic, single point] | – |
| Cc1csc(C(C)N(C)C(=O)CCc2nnc(CCc3ccccc3)o2)n1 (stereo not given) | inconclusive: 14.6 µM [cytotoxic, partial curve, poor fit] | – |
| C=CCN(CC=C)CC(O)Cn1c2ccccc2c2ccccc21 (stereo not given) | – | inactive: -6.88% |
| CCCCN1CCc2c(c3ccccc3n2Cc2ccccc2)C1 | – | inactive: 0% |
| COC(=O)c1cc(OC)c(OC)cc1NC(=O)c1ccc(C)o1 | inconclusive: 2.06 µM [cytotoxic, full curve] | – |
| CCCCCC(=O)O/N=C(\C)c1ccn(S(=O)(=O)c2ccccc2)c1 | – | inactive: -3.05% |
| COC(=O)c1sc2ccccc2c1NC(=O)c1ccc(S(=O)(=O)N2CCCCC2C)cc1 (stereo not given) | active: 16.4 µM | – |
| CC(C)OCCCNC(=O)CN1C(=O)COc2ccc(S(=O)(=O)N3CCOCC3)cc21 | – | inactive: 17.6% |
| COCCNC(=O)c1ccc(-c2nc(CN3CCc4ccccc43)c(C)o2)cc1 | active: 10.3 µM | – |
| COc1ccccc1CNc1nc(NCc2ccccc2SC)c2sccc2n1 | inconclusive: 11.6 µM [cytotoxic, partial curve, poor fit] | – |
| CCCN1Cc2cccc(C(=O)NC(CC(=O)OCC)c3ccc(C)cc3)c2C1=O (stereo not given) | inconclusive: 25.9 µM [cytotoxic, single point] | – |
| O=[N+]([O-])c1cccc(-c2ccc(/C=N/NC(=S)NCc3ccco3)o2)c1 | inconclusive: 5.17 µM [cytotoxic, partial curve, poor fit] | – |
| Cc1ccc(OCC(=O)Nc2sc3c(c2C(N)=O)CCCC3)c(C(C)(C)C)c1 | – | inactive: 1.39% |

Ordered by number of heavy atoms (high to low): part of the list above

| SMILES | Potency | activity change, negative = cytotoxicity |
| --- | --- | --- |
| CCOc1ccc(-n2c(SCc3cc(=O)oc4cc(C)ccc34)nnc2-c2cccnc2)cc1 | inconclusive: 5.8 µM [cytotoxic, partial curve] | – |
| COC(=O)c1sc2ccccc2c1NC(=O)c1ccc(S(=O)(=O)N2CCCCC2C)cc1 (stereo not given) | active: 16.4 µM | – |
| O=C(c1cnc(N2CCCCC2)c2ccccc12)N1CCN(c2cccc(Cl)c2)CC1 | inconclusive: 18.4 µM [cytotoxic, single point] | – |
| CCCN1Cc2cccc(C(=O)NC(CC(=O)OCC)c3ccc(C)cc3)c2C1=O (stereo not given) | inconclusive: 25.9 µM [cytotoxic, single point] | – |
| O=C(Nc1ccc(OC(F)(F)F)cc1)C1CCCCN1S(=O)(=O)c1ccccc1 (stereo not given) | inconclusive: 25.9 µM [cytotoxic, partial curve, poor fit] | – |
| Cc1ccc(NC(=O)c2cc3c([nH]c2=O)CC(c2ccccc2)CC3=O)cc1 (stereo not given) | – | inactive: 16.8% |
| C#CCN1C(=O)C(O)(CC(=O)c2cc(OC)ccc2OC)c2ccccc21 (stereo not given) | inconclusive: 29.1 µM [cytotoxic, single point] | – |
| O=[N+]([O-])c1cccc(-c2ccc(/C=N/NC(=S)NCc3ccco3)o2)c1 | inconclusive: 5.17 µM [cytotoxic, partial curve, poor fit] | – |
| CCCCCC(=O)O/N=C(\C)c1ccn(S(=O)(=O)c2ccccc2)c1 | – | inactive: -3.05% |
| C=CCN(CC=C)CC(O)Cn1c2ccccc2c2ccccc21 (stereo not given) | – | inactive: -6.88% |
| COC(=O)c1cc(OC)c(OC)cc1NC(=O)c1ccc(C)o1 | inconclusive: 2.06 µM [cytotoxic, full curve] | – |
| CCOC(=O)Cc1c(C)nc2c(C#N)c[nH]n2c1=O | inconclusive: 0.92 µM [rising, full curve, poor fit] | – |
| C=CCN1C(=O)CN=C1NCc1ccccc1 | inconclusive: 16.4 µM [rising, single point] | – |

Gathered by group: the entries above containing a nitro group on carbon

| SMILES | Potency | activity change, negative = cytotoxicity |
| --- | --- | --- |
| CCNc1ccc(C(=O)OCC(=O)N2CCCC2)cc1[N+](=O)[O-] | inconclusive: 32.6 µM [cytotoxic, partial curve, poor fit] | – |
| O=[N+]([O-])c1cccc(-c2ccc(/C=N/NC(=S)NCc3ccco3)o2)c1 | inconclusive: 5.17 µM [cytotoxic, partial curve, poor fit] | – |

(next part)

| SMILES | Potency | activity change, negative = cytotoxicity |
| --- | --- | --- |
| CCCC(=O)N(Cc1cc(=O)[nH]c2ccccc12)c1ccc(OC)cc1 | – | inactive: 5.06% |
| CCN(CC)S(=O)(=O)c1ccc(N2C(=O)CC2(/C=C/c2ccccc2)C(=O)NC2CCCC2)cc1 (stereo not given) | active: 2.59 µM | – |
| CCCCN(C(=O)CSc1nnc(-c2ccc(Cl)cc2)o1)c1c(N)n(CC(C)C)c(=O)[nH]c1=O | inconclusive: 29.1 µM [cytotoxic, single point] | – |
| COCCn1cnnc1SCC(=O)Nc1cccc(S(=O)(=O)N2CCCCC2)c1 | – | inactive: -21.2% |
| COc1ccc(C2=Nn3c(nnc3-c3ccccc3OC)SC2)cc1OC1CCCC1 | active: 5.8 µM | – |
| O=C(N/N=C/c1cc(Br)c(O)c(Br)c1O)c1cccnc1 | – | inactive: -5.98% |
| CCc1ccccc1NC(=O)CNC(=O)CNC(=O)Cc1ccccc1 | – | inconclusive: 35% |
| COc1cccc(N/C=C/C(=O)c2ccc(C)cc2)c1 | – | inactive: 12.2% |
| CCOc1ccc2nc(NC(=O)c3ccccc3)sc2c1 | inconclusive: 29.1 µM [cytotoxic, single point] | – |
| CC(C)(C)CC(C)(C)NC(=S)Nc1ccc(S(=O)(=O)N2CCOCC2)cc1 | – | inactive: -24.2% |
| COc1ccc(NC(=O)c2ccc(COCC(F)(F)C(F)F)cc2)cc1OC | inconclusive: 18.4 µM [cytotoxic, partial curve] | – |
| Cc1ccc(C(=O)Nc2ccc(Br)cc2)cc1S(=O)(=O)NCc1ccccc1 | – | inactive: -16.5% |
| COc1ccc(C(=O)N2CC3(C)C4CCC3(C)C2(C#N)C4)cc1OC (stereo not given) | inconclusive: 16.4 µM [cytotoxic, partial curve] | – |
| Cc1ccc2c(c1)c1ncnc(N3CCOCC3)c1n2C | active: 23.1 µM | – |
| Cc1cc([N+](=O)[O-])ccc1NCc1cccc2ccccc12 | active: 13 µM | – |
| Cc1cccn2c(NCc3ccc4c(c3)OCO4)c(-c3ccc(O)cc3)nc12 | inconclusive: 18.4 µM [cytotoxic, single point] | – |
| O=C(CN1CCN(Cc2ccccc2)CC1)Nc1ccc(Br)cc1 | – | inactive: -0.544% |
| C=CCn1c(N)nc2ccccc21 | – | inactive: -18.6% |
| COC(=O)C[C@@H]1C[C@@H]2c3cc(NS(=O)(=O)c4ccccc4)ccc3O[C@@H]2[C@@H](CO)O1 | inconclusive: 3.26 µM [rising, full curve, poor fit] | – |
| COc1ccc(Cl)cc1C(=O)NCCS(=O)(=O)N1CCN(c2ccccc2F)CC1 | inconclusive: 29.1 µM [cytotoxic, single point] | – |
| C=CCn1c(O)c(N=NC(=S)Nc2ccccc2F)c2cc(S(=O)(=O)N3CCOCC3)ccc21 | inconclusive: 25.9 µM [cytotoxic, partial curve, poor fit] | – |
| CCOC(=O)N1CCN(C(=O)CSc2nnc(Cn3c(=O)sc4ccccc43)n2C)CC1 | inconclusive: 29.1 µM [rising, partial curve, poor fit] | – |
| COc1cc(/C=N/OCC(=O)Nc2cc(C)cc(C)c2)ccc1OCc1ccc(Cl)cc1 | active: 20.6 µM | – |
| CCOc1cc(/C=N/N=C(N)N)ccc1OCc1ccc(Cl)cc1 | inconclusive: 18.4 µM [cytotoxic, single point] | – |

| SMILES | Potency | activity change, negative = cytotoxicity |
| --- | --- | --- |
| CN(C)c1cccc(NC(=O)C2Cc3c(-c4cccnc4)ccnc3O2)c1 (stereo not given) | – | inactive: -1.14% |
| Cc1cccn2c(=O)c3cc(C(=O)NCCCN4CCCC4=O)n(C)c3nc12 | – | inactive: -5.36% |
| COC(=O)c1ccccc1NC(=O)CSc1nc2nc(C)cc(C)n2n1 | inconclusive: 9.2 µM [cytotoxic, partial curve] | – |
| CCOC(=O)c1c(C)oc2nc(C)nc(N3CCN(c4ccc(OC)cc4)CC3)c12 | inconclusive: 20.6 µM [cytotoxic, single point] | – |
| Cc1cc(C(=O)CN2C(=O)C(=O)N(C3CCCC3)C2=O)c(C)n1CCc1ccc(F)cc1 | inconclusive: 25.9 µM [cytotoxic, single point] | – |
| CCOC(=O)C1(CCOc2ccccc2)CCN(Cc2ccc(OCC)c(CO)c2)CC1 | inconclusive: 29.1 µM [cytotoxic, single point] | – |
| CC(C)Cc1nc2sc3c(NCc4ccco4)ncnc3c2c2c1COC(C)(C)C2 | – | inactive: -10% |
| CC(=NNC(=O)c1ccncc1)c1ccc(Cl)cc1Cl | inconclusive: 29.1 µM [cytotoxic, single point] | – |
| COC(=O)N/N=C1\CCCc2ccccc21 | – | inactive: -0.767% |
| O=C(CSc1ccc([N+](=O)[O-])cc1)Nc1cccc(S(=O)(=O)N2CCOCC2)c1 | inconclusive: 18.4 µM [cytotoxic, single point] | – |
| O=C(c1ccc2c(=O)n3c(nc2c1)CCCCC3)N1CCc2ccccc21 | inconclusive: 8.2 µM [cytotoxic, partial curve] | – |
| CCC(C)c1ccc(O)c(NC(=O)c2ncn[nH]2)c1 (stereo not given) | inconclusive: 23.1 µM [cytotoxic, partial curve, poor fit] | – |
| CCCCC1=CC2=CC(=O)C(C)(OC(=O)CC)C(=O)C2=CN1CCOC (stereo not given) | inconclusive: 10.3 µM [rising, single point] | – |
| O=C(Nc1c2c(nn1-c1cccc(Cl)c1)CS(=O)C2)c1ccc2c(c1)OCO2 (stereo not given) | inconclusive: 16.4 µM [rising, partial curve, poor fit] | – |
| O=[N+]([O-])c1cc(/C=N/N2CCOCC2)cs1 | inconclusive: 29.1 µM [rising, single point] | – |
| C[N+](C)(C)CCN1CCc2ccccc21 | inconclusive: 9.2 µM [rising, partial curve, poor fit] | – |
| O=C(OCCN1CCOCC1)C1(c2ccccc2)CCCCC1 | inconclusive: 29.1 µM [cytotoxic, single point] | – |
| C[C@H](NC(=O)Cc1cccc2ccccc12)C(=O)N1CCOCC1 | – | inactive: 21.3% |
| CC(C)(C)C1CCc2onc(C(=O)N3CCOCC3)c2C1 (stereo not given) | active: 20.6 µM | – |
| COC(=O)CN1C(C(=O)c2ccccc2)=C(OC(=O)c2ccc(C)cc2)c2ccccc2S1(=O)=O | – | inactive: 13.9% |
| Cc1cc2cc(C)c(NCCNC(=O)c3ccccc3F)nc2cc1C | inconclusive: 6.51 µM [cytotoxic, partial curve] | – |
| Cc1ccc(S(=O)(=O)N(C)C)cc1NC(=O)COc1ccccc1C(=O)Nc1ccccc1 | inconclusive: 20.6 µM [cytotoxic, single point] | – |
